PubChem BioAssay AID504808 – Drosophila RNAi Screening Center, 2011

- Purpose: 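Genes whose loss lifts activity of an E2F-responsive reporter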 (primary screen)
- Cells: Drosophila S2 cells
- Reagents: long dsRNA against Drosophila genes
- Measured: 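Firefly luciferase driven by E2F sites, normalised to Renilla luciferase on the same minimal promoter, measured by plate reader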
- Direction: E2F firefly: higher = more E2F reporter activity; Renilla normaliser: higher = more normaliser reporter signal
- Active means: 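Called active if the normalised E2F reporter went up by over 50%; the cutoff is arbitrary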
The screen tested about 21,000 reagents; shown is a random part of those with a known target gene and a result. Over the whole deposit, 18 (0.084%) are marked active. 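Raw counts without plate normalisation, one of two replicates; the ratio scores behind the calls were not deposited.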 Entries without a mark were called inactive. Reagents against one gene are numbered here. A plus sign joins genes that one reagent is predicted to hit. Reagent sequences are not shown. Not given: the amount of reagent, the time to read-out.

gene	reagent no.	E2F firefly, rep 1	Renilla normaliser, rep 1
Rok	1	1.93e5	6279
Acsx2	1	1.38e5	7809
CG32248	1	1.41e5	4483
Ndfip	1	73200	3430
qkr58E-1	1	85563	3825
CG7341	1	65028	3368
put	1	63860	3683
Rdl	1	75489	3714
CG34286	1	88056	2714
Npc2b	1	1.04e5	5226
CG13527	1	98298	4230
slo	1	72175	3946
Nepl19	1	49299	3158
Cyp309a2	1	1.61e5	6238
CG10137	1	86804	3447
CG10137	2	93153	4226
CG14646	1	84366	3776
Epg5	1	1.42e5	7328
CG11470	1	1.44e5	6997
Gos28	1	1.48e5	7338
RpS9	1	57368	3489
CG11458	1	1.12e5	6490
Vps24	1	71566	4088
Spn43Aa	1	90085	3206
Sik3	1	1.37e5	5048
Sik3	2	71569	3936
Rbp4	1	1.12e5	7149
Bulli	1	1.05e5	3993
Fem-1	1	85376	4133
CG11581	1	1.49e5	6028
Syn1	1	1.38e5	6596
Syn1	2	1.32e5	5660
CG12662	1	74999	3948
CG42594	1	56127	4107
CG42594	2	1.21e5	6012
Pbgs	1	1.27e5	6829
X11L	1	1.82e5	5665
X11L	2	1.48e5	5782
mfas	1	70956	3306
CG32241	1	1.39e5	3735
Vha100-4	1	1.36e5	7357
Sox15	1	87283	4279
Hpr1	1	66045	3074
Cdc37	1	90488	3452
Mink	1	60802	2978
Drep4	1	90236	3859
CG11357	1	88440	3639
Tsp42Eh	1	1.41e5	5434
Or45b	1	1.52e5	5181
mRpS7	1	86011	3129
HBS1	1	87675	4106
timeout	1	86622	2687
timeout	2	96451	5674
timeout	3	1.01e5	5544
timeout	4	1.19e5	5597
timeout	5	1.15e5	6279
CG5793	1	1.22e5	6586
Alr	1	1.68e5	5703
CG4669	1	83401	3701
mRpL2	1	1.03e5	6962
CG17127	1	1.60e5	5169
CG14655	1	54325	3990
mRpL43	1	1.18e5	5169
Gr64c	1	1.12e5	4141
CG12672	1	2.30e5	8166
Ance-5	1	73750	3205
CG11134	1	46646	3475
Prosbeta4R1	1	1.72e5	6510
Dpp10	1	1.35e5	5604
Dpp10	2	1.50e5	5692
CG31213	1	1.26e5	7597
CG31213	2	1.28e5	6120
CG5391	1	1.23e5	6937
CG6962	1	62107	3947
Prp40	1	65814	189
del	1	89163	3329
Dhc62B	1	93934	4030
mag	1	85071	3624
CG3588	1	1.12e5	5572
Fa2h	1	1.38e5	4839
Fa2h	2	1.41e5	4992
CG16888	1	96919	4380
CG42500	1	91667	6103
CrzR	1	1.32e5	6743
CrzR	2	1.25e5	6546
Bbd	1	1.51e5	4897
CG17780 + CG17781	1	95450	6212
glob3	1	1.21e5	6188
CG17780	1	1.05e5	5671
Helz	1	79354	3519
Odj	1	58622	3029
CG31019	1	84383	2415
CG11109	1	83273	3857
FAM21	1	71872	3371
Mo25	1	69726	3408
CG42337	1	1.16e5	6076
CG42337	2	83241	5357
CG30156	1	1.31e5	5283
CG30075	1	1.27e5	4673
CG10602	1	78296	4206
NetB	1	8000	824
CG9759	1	81449	3465
Sap130	1	1.22e5	6894
CG13893	1	90464	3818
Gpdh3	1	86601	3261
Gpdh3	2	1.49e5	6667
CG11865	1	1.07e5	4577

Reformatted: 7 of the entries above.
Sik3 #1
- E2F firefly, rep 1: 1.37e5
- Renilla normaliser, rep 1: 5048

Sik3 #2
- E2F firefly, rep 1: 71569
- Renilla normaliser, rep 1: 3936

Rbp4
- E2F firefly, rep 1: 1.12e5
- Renilla normaliser, rep 1: 7149

Bulli
- E2F firefly, rep 1: 1.05e5
- Renilla normaliser, rep 1: 3993

Fem-1
- E2F firefly, rep 1: 85376
- Renilla normaliser, rep 1: 4133

CG11581
- E2F firefly, rep 1: 1.49e5
- Renilla normaliser, rep 1: 6028

Syn1 #1
- E2F firefly, rep 1: 1.38e5
- Renilla normaliser, rep 1: 6596
